{
  "source": "paper PMC12667501",
  "binders": {"B1": {"name": "Myc-tagged Ube2r2 (enzyme, UniProt Q6ZWZ2 1-238)", "chain": "MAQQQMTSSQKALMLELKSLQEEPVEGFRITLVDESDLYNWEVAIFGPPNTLYEGGYFKAHIKFPIDYPYSPPTFRFLTKMWHPNIYENGDVCISILHPPVDDPQSGELPSERWNPTQNVRTILLSVISLLNEPNTFSPANVDASVMFRKWRDSKGKDKEYAEIIRKQVSATKAEAEKDGVKVPTTLAEYCIKTKVPSNDNSSDLLYDDLYDDDIDDEDEEEEDADCYDDDDSGNEES"}},
  "key": {"[1]": {"target": "Flag-tagged Btrc isoform △E2&3", "test": "co-IP; Myc-tagged Ube2r2 and Flag-tagged Btrc isoforms cotransfected into HEK293T cells for 48 h; lysates precipitated with anti-Flag antibody; Western blotting with anti-Myc and anti-Flag"}, "[2]": {"target": "Flag-tagged Btrc isoform △E3", "test": "co-IP; Myc-tagged Ube2r2 and Flag-tagged Btrc isoforms cotransfected into HEK293T cells for 48 h; lysates precipitated with anti-Flag antibody; Western blotting with anti-Myc and anti-Flag"}},
  "note": "No constants are given. Whether binding was seen depends on the method and setting. In cells and extracts the contact can be indirect. A result given as binding can be weak or reduced; the word gives no strength. Sequences can lack the tags named with a protein.",
  "data": [
    {"binder": "B1", "values": [
      {"measurement": "binding", "setting": "[1]", "result": "binds"},
      {"measurement": "binding", "setting": "[2]", "result": "binds"}
    ]}
  ]
}
